For 63 compounds, AC50 results are on record in PubChem BioAssay AID493014 (National Center for Advancing Translational Sciences (NCATS), 2011).

The other results are listed elsewhere or left out. The main result of the screen is listed elsewhere. These columns were measured beside it and carry no call. Compounds called inactive in the main read-out are mostly missing here. The note in brackets gives the kind of curve behind each potency; many fits are weak.

This assay can be described thus: qHTS Assay to Find Inhibitors of Chronic Active B-Cell Receptor Signaling. To be noted: ABC-DLBCL IkBa-CBG/CBR reporter, luminescence ratio (green luciferase fused to IkBa over red control in TMD8 lymphoma cells), 4 h. The method in brief: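 Compounds up to 46 uM were incubated four hours with TMD8 cells whose green CBG68 luciferase is fused to IkappaBalpha; red CBR luminescence normalised the signal, and concentration-effect curves were fitted to fusion, red and ratio data.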
In general terms: qHTS replaces the single test concentration by a dilution series.

Where [1] appears, read: measured here: CBR red luminescence, cell number.
Setting [2] is: measured here: IkBa-CBG green luminescence.

As a reminder, the AC50 is the concentration at which the activity in the assay is half-maximal. `COc1ccc(-c2nnc(-c3ccccc3O)o2)cc1`: under setting [1], the AC50 is 10 µM [falling, single point]. Take `COc1ccc2c(c1OC)C(=O)OC2Nc1nc(-c2cc3ccccc3oc2=O)cs1` (configuration not stated): the AC50 under setting [1] is 16.4 µM [falling, single point]. Still for that read-out and setting: then `COc1ccc(S(=O)(=O)N(C)CC(=O)NCCc2ccccc2)cc1OC`, with 7.94 µM [rising, partial curve, poor fit]. The same measure, in the same setting: then `S=C(NCCN(C1CCCCC1)C1CCCC1)Nc1cccc(Cl)c1`, with 35.5 µM [falling, single point]; and `Oc1ccccc1N1CCN(Cc2ncc(-c3ccccc3)o2)CC1`, with 22.4 µM [falling, single point]. Take `COc1cc2c(cc1[N+](=O)[O-])n(C(C)C)c(=O)n2C(C)C`: the AC50 is 0.1 µM [rising, full curve, poor fit] under setting [1] and 15.8 µM [falling, partial curve, poor fit] under setting [2]. For the compound `COCCN(CCOC)C(=O)CCn1c(=O)oc2ccccc21`, the AC50 under setting [1] was 23.1 µM [rising, single point]. As for `Cc1ccc(CNC(=O)CCS(=O)(=O)c2ccc(Cl)cc2)cc1`, the AC50 under setting [1] is 6.51 µM [rising, single point]. `COC(=O)Nc1sccc1C(=O)Nc1sccc1C(=O)OC`: the AC50 under setting [1] is 20.6 µM [rising, partial curve, poor fit].

In the case of `COc1cc(NC(=O)CCCc2c[nH]c3ccccc23)cc(OC)c1`, under setting [1], the AC50 was 16.4 µM [falling, partial curve]. Same read-out and setting: with `CCc1cccc(CC)c1NC(=O)C1CC(=O)N(c2ccc3c(c2)OCCO3)C1` (configuration not stated) the figure was 1.46 µM [rising, full curve]; with `CCn1c(N)c(C(=O)NCCCOC)sc1=S`, 5.62 µM [rising, single point]. For `Cc1noc(C)c1S(=O)(=O)N1CCC(C(=O)N2CCN(c3ccccc3Cl)CC2)CC1`, the AC50 under setting [1] was 5.17 µM [rising, partial curve, poor fit]. Consider `O=C(CC(c1ccccc1)c1ccccc1)Nc1ccc(O)cc1`, for which the AC50 under setting [1] was 10 µM [falling, partial curve].

On to `CCOC(=O)CNC(=O)Cn1cnc2c(nnn2-c2cccc(Cl)c2)c1=O`, for which the AC50 under setting [1] is 16.4 µM [rising, partial curve, poor fit]. The same measure, in the same setting: then `CN1C(=O)/C(=C/c2cccc(Cl)c2)Sc2ccc(C(=O)NCc3cccnc3)cc21`, with 35.5 µM [falling, single point]. `CN(C)c1ccc(NC(=O)c2ccc3nsnc3c2)cc1`: the half-maximal activity concentration (AC50) under setting [1] is 2.31 µM [falling, partial curve]. On the same count and under the same terms, then `O=C(N/N=C/c1sc(=O)[nH]c1-[n+]1ccc2ccccc2c1)c1ccccc1[O-]`, with 2.82 µM [falling, full curve]; and `CCc1cccc(CC)c1NC(=O)CO/N=C(\C)c1cccs1`, with 23.1 µM [rising, single point]. With `Cc1cc(=O)[nH]c(-n2nc(C)cc2C)n1`, the AC50 by setting is: under setting [1], 35.5 µM [rising, single point]; under setting [2], 31.6 µM [falling, single point]. With `COc1ccccc1NC(=O)N1CCN(c2ncccn2)CC1`, the AC50 under setting [1] is 0.0291 µM [rising, full curve, poor fit].

For the compound `O=C(/C=C/c1ccc2c(c1)OCO2)Nc1cccnc1`, the AC50 under setting [1] is 11.2 µM [falling, partial curve]. Still for that read-out and setting: with `COc1cc(/C=N/NC(=O)c2ccc(Cn3cc([N+](=O)[O-])cn3)o2)cc(Br)c1O` the figure was 17.8 µM [falling, partial curve, poor fit]. `CC1=NNC(=O)C1CC(=O)N/N=C/c1cccs1` (configuration not stated): under setting [1], the AC50 is 3.16 µM [falling, single point]. On the same count and under the same terms, then `COc1cccc(C(=O)Nc2nnc(S(=O)(=O)N3CCOCC3)s2)c1`, with 17.8 µM [rising, single point]; and `Cc1sc(NC(=O)c2ccco2)c(C(c2ccc(F)cc2)N2CCN(C)CC2)c1C` (configuration not stated), with 11.2 µM [falling, partial curve, poor fit]; and `O=C(c1cccc(NS(=O)(=O)c2ccc(Br)cc2)c1)N1CCN(c2ccccc2O)CC1`, with 29.1 µM [falling, single point]. Same read-out and setting: then `Cn1c(CCN2CCCCC2)nc2cc(NC(=O)COc3ccc([N+](=O)[O-])cc3)ccc21`, with 1.26 µM [falling, full curve, poor fit]; and `Cc1ccccc1N(Cc1nnc2n1CCCCC2)C(=O)Nc1ccccc1`, with 35.5 µM [rising, single point]; and `CN(CC(=O)N1CCc2ccccc21)S(=O)(=O)c1ccc(Br)s1`, with 29.1 µM [rising, partial curve, poor fit].

As to `CCCOC(=O)c1ccc(Oc2c(-c3ccc(OC)cc3O)n[nH]c2C)cc1`, under setting [1], the AC50 is 35.5 µM [falling, single point].

As to `CCOc1cc(/C=N/Nc2ccc(C(=O)O)cc2)ccc1OC(=O)c1ccccc1C`, the AC50 under setting [1] was 2.24 µM [falling, partial curve]. On the same count and under the same terms, with `CC(=O)N/N=C(\C)CC(=O)NC(C)(C)C` the figure was 6.31 µM [rising, single point]; with `O=C(c1cc(-c2ccccc2O)on1)N1CCCC1`, 11.2 µM [falling, single point]; with `CC(=O)NC(=S)Nc1ccc(NC(=O)c2cccnc2)cc1`, 1.12 µM [rising, full curve, poor fit].

As for `Cc1ccc(S(=O)(=O)N2CCCC2C(=O)Nc2nc3ccccc3s2)cc1` (configuration not stated), under setting [1], the AC50 is 5.17 µM [falling, partial curve, poor fit]. Regarding `COc1ccccc1N1CCN(C2CCN(S(=O)(=O)c3ccc(NC(C)=O)cc3)CC2)CC1`, the AC50 under setting [1] was 6.31 µM [falling, single point].

For the compound `CCOC(=O)CSc1nc2ccc(N)cc2s1`, the AC50 under setting [1] is 20.6 µM [rising, single point]. Consider `COc1ccc(-c2nnc(SCCOc3cccc(C)c3)n2N)cc1`, for which the AC50 under setting [1] is 0.00517 µM [rising, full curve, poor fit].

`COc1ccc(S(=O)(=O)N(C)C[C@H]2Oc3c(cccc3N(C)C)C(=O)N([C@H](C)CO)C[C@@H]2C)cc1`: the AC50 under setting [1] was 5.17 µM [rising, full curve, poor fit].

With `COc1ccc(OC)c(CCNC(=O)CN2C(=O)CC(C)(C)S(=O)(=O)c3ccccc32)c1`, under setting [1], the AC50 was 0.517 µM [rising, full curve, poor fit]. Same read-out and setting: with `COc1ccc(-c2cc(=Nc3ccc(C)cc3)c3ccccc3o2)cc1` the figure was 7.08 µM [rising, full curve].

Consider `COc1ccc(Cc2nnc(SCc3nc4ccccc4c(=O)[nH]3)o2)cc1`, for which the AC50 under setting [1] is 3.66 µM [rising, full curve, poor fit]. Take `CC(C)NC(=S)NN=C1CCCCCCCCCCC1`: the AC50 is, setting by setting: under setting [1], 11.2 µM [falling, partial curve, poor fit]; under setting [2], 35.5 µM [falling, single point]. In the case of `CCOC(=O)c1cc(-c2ccccc2)n(CCC(=O)NCCc2cccc(C)c2)c1C`, the AC50 under setting [1] is 35.5 µM [falling, single point]. On the same count and under the same terms, then `COc1cccc(NC(=O)Nc2ccncc2)c1`, with 35.5 µM [falling, single point]; and `CCCCOC(=O)Nc1nc2ccc(OC)cc2s1`, with 0.231 µM [rising, full curve, poor fit]. Same read-out and setting: with `COc1ccc(CCN(C)CCC(=O)Nc2ccc(C)cc2)cc1OC` the figure was 20.6 µM [rising, partial curve].

With `CCOC(=O)c1c(NC(=O)COC(=O)c2cc(OC)c(OC)cc2[N+](=O)[O-])sc(C)c1CC`, the concentration at half-maximal activity (AC50) under setting [1] was 0.651 µM [rising, full curve]. On the same count and under the same terms, then `O=C(CNC(=O)c1ccc2ccccc2c1)Nc1ncccc1O`, with 9.2 µM [falling, partial curve]. The same measure, in the same setting: then `Brc1ccc2ncnc(Nc3ccc(N4CCOCC4)cc3)c2c1`, with 7.08 µM [falling, partial curve, poor fit]. In the case of `COc1ccc(C(CC(=O)c2ccc(O)cc2)S(=O)(=O)c2ccc(C)cc2)cc1` (configuration not stated), under setting [1], the AC50 was 20 µM [falling, partial curve, poor fit]. Regarding `Cc1cc(NC(=O)Cc2ccccc2)nc2c1c(=O)oc1ccccc12`, the AC50 under setting [1] was 1.3 µM [falling, partial curve, poor fit].

For the compound `COC(=O)c1c(NC(=O)c2ccc(OC(C)C)cc2)sc2c1CC(C)(C)NC2(C)C`, under setting [1], the AC50 is 22.4 µM [rising, single point]. Take `COc1ccc(-c2cc(C(=O)Nc3ccc(S(N)(=O)=O)cc3)c3ccccc3n2)cc1OC`: the AC50 under setting [1] is 0.631 µM [rising, full curve, poor fit]. The same measure, in the same setting: with `CCN1C(=O)/C(=C\N2CCCc3ccccc32)SC1=S` the figure was 1.03 µM [rising, full curve, poor fit]; with `CCOc1ccc(S(=O)(=O)N2CCCCC2)c2ccccc12`, 3.16 µM [rising, partial curve, poor fit].

Consider `COc1ccc(-c2nnc3sc(CCN4C(=O)c5ccccc5C4=O)nn23)cc1`, for which the AC50 under setting [1] was 15.8 µM [rising, partial curve, poor fit].

Consider `O=C(c1ccco1)N1CCN(S(=O)(=O)c2ccc(Cl)cc2)CC1`, for which, under setting [1], the AC50 is 8.91 µM [falling, full curve, poor fit].

`COc1ccccc1-c1nc(C#N)c(N2CCN(Cc3ccccc3)CC2)o1`: the AC50 under setting [1] was 29.1 µM [falling, single point]. On the same count and under the same terms, then `CC(C)C[C@H](NC(=O)Nc1ccc2c(c1)OCCO2)C(=O)O`, with 0.794 µM [rising, full curve, poor fit]. The same measure, in the same setting: with `Cc1cc(=O)oc2c1c(C)nn2-c1ccc(Br)cc1` the figure was 0.224 µM [rising, full curve, poor fit]. Turning to `CCOC(=O)c1ccccc1NC1c2ccccc2C(=O)N1C1CCN(C(=O)OCC)CC1` (configuration not stated), the AC50 is 29.1 µM [falling, single point] under setting [1] and 32.6 µM [rising, partial curve, poor fit] under setting [2].
